{"source": "patent US9005677B2", "about": "“Autophagy enhancer for treatment of neurodegenerative diseases” (Macau University of Science and Technology, priority 2013, dated 2015)", "test_system": "GFP-LC3 puncta formation in PC12 cells", "assay": "Quantification of autophagy GFP-LC3 puncta", "format": "cell-based, rat", "conditions": "fluorescent microscopy", "procedure": "Quantification of autophagy GFP-LC3 Puncta. GFP-LC3 puncta formation was quantified as described previously. In brief, cells grown on coverslips in a 6-well plate were fixed in 4% paraformaldehyde for 20 minutes at room temperature and then rinsed with PBS. Slides were mounted with FluorSave™ mounting media (Calbiochem, San Diego, Calif.) and examined by fluorescence microscopy. The number of GFP-positive cells with GFP-LC3 puncta formation was examined under the Nikon ECLIPSE 80i microscope. Representative images were captured with CCD digital camera Spot RT3™ (Diagnostic Instruments, Inc., Melville, N.Y.). To quantify autophagy, the percentage of cells with punctate GFP-LC3 fluorescence was calculated by counting the number of the cells with punctate GFP-LC3 fluorescence in GFP-positive cells. A minimum of 150 cells from 3 randomly selected fields was scored.", "note": "At least one compound was matched to its structure with a doubt left.", "data": [{"compound": "CO[C@H]1C[C@@H]2CC[C@@H](C)[C@@](O)(O2)C(=O)C(=O)N2CCCC[C@H]2C(=O)O[C@H]([C@H](C)C[C@@H]2CC[C@@H](O)[C@H](OC)C2)CC(=O)[C@H](C)/C=C(\\C)[C@@H](O)[C@@H](OC)C(=O)[C@H](C)C[C@H](C)/C=C/C=C/C=C/1C", "note": "[rapamycin]", "values": [{"measurement": "GFP-LC3 puncta formation", "result": "markedly increase in GFP-LC3 puncta formation"}]}]}
